Data taken from PubChem BioAssay AID2685 (National Center for Advancing Translational Sciences (NCATS), 2010).
This is one part of the list. These are further read-outs of the screen, such as a control signal, another cell line or another target. No call is given for them. Most of these compounds were active or inconclusive in the main read-out, so they are no random draw. The note in brackets gives the kind of curve behind each potency; many fits are weak.

Assay: qHTS Assay for Lipid Storage Modulators in Drosophila S3 Cells;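 for cell number change: cells counted by Cell Tracker Red CMTPX staining in the red channel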
Conditions: BODIPY lipid droplet fluorescence, 18-24 h; for cell number change: measured here: cell count max response, cells fed with added oleic acid
Method in brief: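 Drosophila S3 cells loaded with oleic acid (400 uM, as added) and compounds at several concentrations; lipid droplets imaged by 488-nm laser-scanning cytometry, 500–530 nm intensity and object ratio to cell channel. Percent activity normalized to 20 uM Triacsin C.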

[1] = measured here: lipid fluorescence (Fed channel) AC50, cells fed with added oleic acid
[2] = measured here: cell number channel AC50, cells fed with added oleic acid

| SMILES | cell number change [%] | AC50 [1] | AC50 [2] |
| --- | --- | --- | --- |
| O=C(COCc1cc(-c2ccc3c(c2)OCO3)on1)N1CCN(c2cccc(C(F)(F)F)c2)CC1 | 26.9 | 16.4 µM [rising, partial curve] | – |
| CCC1CCc2sc(C(=O)NCC(c3ccccc3OC)N3CCCC3)cc2C1 (stereo not given) | -8.89 | 11.6 µM [rising, single point] | – |
| CC(C)NC(=O)CSc1nnc(COc2ccccc2Cl)o1 | -0.705 | 0.0517 µM [rising, full curve, poor fit] | – |
| O=C(NCCN1CCCC1)c1ccc(Cl)cc1Cl | -5.82 | – | – |
| CC1(C)Cc2cccc(OCC(O)CNCc3ccccn3)c2O1 (stereo not given) | 31.9 | – | 25.9 µM [rising, single point] |
| Cn1c(SCc2n[nH]c(=S)o2)nnc1-c1ccccc1 | 142 | – | – |
| COc1ccc(N(CC(=O)Nc2cc(C)ccc2OC)S(=O)(=O)c2c(C)noc2C)cc1 | 0.354 | 3.66 µM [rising, full curve, poor fit] | – |
| C=CCNC(=O)C1CCN(c2cc(C)nc(-c3ccccc3)n2)CC1 | -22.6 | 25.9 µM [falling, partial curve] | – |
| Nc1nc(SCC(=O)Nc2ccc(Cl)cc2C(F)(F)F)n[nH]1 | -0.293 | 6.51 µM [falling, single point] | – |
| O=C(O)CCCC(=O)Nc1nncs1 | -37.2 | – | 7.31 µM [falling, single point] |
| CC1(c2ccccc2)NC(=O)N(CCN2C(=O)c3ccccc3C2=O)C1=O (stereo not given) | -8.27 | 0.13 µM [falling, full curve, poor fit] | – |
| O=C(NCCC1CCCCN1S(=O)(=O)c1ccc(F)cc1)C(=O)Nc1ccccc1 (stereo not given) | 3.68 | 0.00411 µM [rising, full curve, poor fit] | – |
| CCOc1ccc(OCC)c(NC(=O)C2CCCN(c3ncccn3)C2)c1 (stereo not given) | 5.68 | 0.517 µM [rising, full curve] | – |
| CN1CCN(/N=C/c2ccc(OCc3ccccc3)cc2)CC1 | 10.4 | – | 0.146 µM [falling, full curve, poor fit] |
| CC(=O)N1c2ccc(S(=O)(=O)N3CCCCC3)cc2CC1C(=O)NCc1ccc(N(C)C)cc1 (stereo not given) | -17.9 | 0.116 µM [falling, full curve, poor fit] | – |
| COc1ccc(OCCSc2nnc(-c3ccccc3)n2N)cc1 | -23.8 | 7.31 µM [rising, partial curve, poor fit] | – |
| Cc1cc(C)nc(N2CCN(CC(=O)NCc3ccccc3)CC2)n1 | 4.8 | 5.8 µM [falling, partial curve, poor fit] | – |
| CC(=O)NC(Nc1nc2c(s1)CCCC2)(C(F)(F)F)C(F)(F)F | -10.3 | 0.0651 µM [falling, full curve, poor fit] | – |
| O=c1c2ccccc2nc2n1CCCCC2 | -2.79 | 3.26 µM [falling, partial curve, poor fit] | 2.91 µM [falling, partial curve, poor fit] |

| SMILES | cell number change [%] | AC50 [1] | AC50 [2] |
| --- | --- | --- | --- |
| COc1cc(NC(=O)Cn2c(=O)n(CC3CCCO3)c(=O)c3cc(OC)c(OC)cc32)cc(OC)c1 (stereo not given) | 19.2 | – | 4.11 µM [rising, partial curve, poor fit] |
| CCNC(=S)Nc1cc(C)ccn1 | 1.41 | 0.651 µM [rising, full curve] | – |
| Cc1nn(Cc2c(F)c(F)c(F)c(F)c2F)c(C)c1NC(=O)c1ccc(COc2cc(Cl)ccc2Cl)cc1 | -13.5 | 18.4 µM [rising, partial curve] | – |
| O=C(COC(=O)Cn1c(C(F)(F)F)nc2ccccc21)Nc1ccc2c(c1)OCCO2 | -52.6 | 29.1 µM [falling, single point] | 29.1 µM [falling, single point] |
| C=CC[n+]1c(-c2ccc(OC)cc2)csc1NNC(=O)Nc1ccccc1 | 9.37 | – | – |
| COCc1cc(C)nc(SCC(=O)Nc2cc(C(F)(F)F)ccc2N2CCOCC2)c1C#N | 13.5 | – | – |
| O=C(NCc1ccc2c(c1)OCO2)c1cccnc1 | -22.4 | 0.651 µM [falling, full curve, poor fit] | 0.092 µM [falling, full curve, poor fit] |
| CC[C@H](C)C(=O)O[C@H]1C[C@@H](C)C=C2C=C[C@H](C)[C@H](CC[C@@H]3C[C@@H](O)CC(=O)O3)[C@H]21 | – | 1.16 µM [falling, single point] | 0.58 µM [rising, single point] |
| O=C(NCCSCc1ccccc1)c1ccc(F)cc1 | -3.54 | – | – |
| CCc1nnc(NC(=O)c2ccc(Cl)nc2)s1 | -6.22 | – | 0.00461 µM [falling, full curve, poor fit] |
| S=c1[nH]nc(-c2ccccc2)n1/N=C/c1cccc(Cl)c1 | -32.2 | 29.1 µM [falling, single point] | 25.9 µM [falling, single point] |
| Cc1cc(C)nc(NS(=O)(=O)c2ccc(NC(=O)c3ccco3)cc2)n1 | 37.3 | 29.1 µM [rising, single point] | 10.3 µM [rising, single point] |
| O=C(N=C1SC2CS(=O)(=O)CC2N1Cc1ccccc1Cl)C1CCCO1 (stereo not given) | -24.4 | 0.13 µM [falling, partial curve, poor fit] | 0.00411 µM [falling, full curve, poor fit] |
| COc1ccc2[nH]cc(C(=O)CN3CCCC(C)(C)C3)c2c1 | 45.9 | – | 23.1 µM [rising, single point] |
| Cc1ccc(Cn2c(CN(C)Cc3ccccc3)nc3c2c(=O)n(C)c(=O)n3C)cc1 | -4.28 | 4.11 µM [rising, partial curve, poor fit] | – |
| O=C(NCCS(=O)(=O)N1CCC2(CC1)OCCO2)c1ccc(F)cc1 | -7.03 | 2.06 µM [rising, partial curve] | – |
| O=C(Cc1cccs1)NCc1ccc2c(c1)OCO2 | -7.29 | – | – |
| COC(=O)/C(=C1\Oc2ccc(C(C)(C)C)cc2S1)C(F)(F)F | -4.79 | 2.06 µM [rising, partial curve, poor fit] | – |
| Cc1cc(NS(=O)(=O)c2ccc(NC(=O)C(c3ccccc3)c3ccccc3)cc2)no1 | 5.26 | – | – |

Some of these compounds in order of count of non-hydrogen atoms, low to high:

| SMILES | cell number change [%] | AC50 [1] | AC50 [2] |
| --- | --- | --- | --- |
| CCc1nnc(NC(=O)c2ccc(Cl)nc2)s1 | -6.22 | – | 0.00461 µM [falling, full curve, poor fit] |
| CC[C@H](C)C(=O)O[C@H]1C[C@@H](C)C=C2C=C[C@H](C)[C@H](CC[C@@H]3C[C@@H](O)CC(=O)O3)[C@H]21 | – | 1.16 µM [falling, single point] | 0.58 µM [rising, single point] |
| Cc1cc(NS(=O)(=O)c2ccc(NC(=O)C(c3ccccc3)c3ccccc3)cc2)no1 | 5.26 | – | – |

Continued.

| SMILES | cell number change [%] | AC50 [1] | AC50 [2] |
| --- | --- | --- | --- |
| COc1ccc(-c2cc(C(=O)N3CCCCCC3)no2)cc1 | -0.87 | 0.58 µM [falling, single point] | – |
| Cc1ccc(NC(=O)Nc2ccc3c(c2)CCC3)cc1C | -8.09 | 0.116 µM [rising, full curve, poor fit] | – |
| CCCCNC(=O)c1nn(-c2ccccc2OC)c(=O)c2ccccc12 | 4.39 | 2.59 µM [rising, single point] | – |
| COc1ccc(-c2cn[nH]c2-c2ccc(OCc3ccccc3F)cc2O)cc1OC | -39.2 | 29.1 µM [falling, single point] | 14.6 µM [falling, single point] |
| O=S(=O)(NCc1ccc(Cl)cc1)NCc1ccccc1F | 5.7 | 0.103 µM [falling, full curve, poor fit] | 0.116 µM [falling, full curve, poor fit] |
| COC(=O)C1=C(O)CSC1=Nc1ccccc1 | -1.99 | – | – |
| O=C(NCc1ccccc1Cl)C1CCC(CNc2nc(=S)[nH]c3ccccc23)CC1 (stereo not given) | 22.9 | – | – |
| Cc1nnc(SCC(=O)Nc2cc(C(F)(F)F)ccc2N2CCOCC2)o1 | 63.1 | 1.84 µM [rising, partial curve] | 5.17 µM [rising, partial curve] |
| COc1ccc2cc(C(=O)N3CCN(C)CC3)[nH]c2c1 | 43 | 29.1 µM [rising, single point] | 4.11 µM [rising, full curve, poor fit] |
| CCCN1CCCc2cc(CN(CCCN3CCOCC3)C(=O)Nc3ccc(OCC)cc3)ccc21 | 8.12 | – | – |
| COc1ccc(N(CC(=O)N/N=C/c2ccc(F)cc2)S(=O)(=O)c2ccccc2)cc1 | 52.3 | – | 9.2 µM [rising, partial curve] |
| CCN(Cc1nc2ccccc2c(=O)[nH]1)Cc1nc2cc(OC)c(OC)cc2c(=O)[nH]1 | – | 1.03 µM [rising, partial curve, poor fit] | 4.11 µM [rising, partial curve, poor fit] |
| CCN1CCCC1CN(Cc1cc2cc(C)cc(C)c2[nH]c1=O)C(=O)Nc1ccccc1OC (stereo not given) | 91.8 | 29.1 µM [rising, partial curve, poor fit] | 7.31 µM [rising, partial curve, poor fit] |
| O=C(COC(=O)CCC1CCCC1)Nc1ccccc1OC(F)F | -28 | 23.1 µM [falling, single point] | 0.92 µM [falling, full curve, poor fit] |
| Cc1ccc2c(CN3CCN(S(=O)(=O)/C=C/c4ccccc4)CC3)cc(=O)oc2c1 | 19.7 | 4.61 µM [rising, full curve, poor fit] | – |
| CC(=O)c1cc2c(=O)c3cc(C)ccc3oc2nc1C | – | 0.461 µM [rising, partial curve, poor fit] | 0.651 µM [rising, single point] |
| COc1ccc(CCNC(=O)Cn2cnc3c(cnn3-c3ccccc3Cl)c2=O)cc1OC | -7.65 | 0.731 µM [rising, full curve, poor fit] | – |
| N#Cc1c(NC(=O)c2ccccc2)sc2c1CCC2 | -0.245 | – | – |
| Cc1c(C(=O)NC2CCCc3ccccc32)oc2ccc(S(=O)(=O)N3CCCC3)cc12 (stereo not given) | 9.14 | 0.116 µM [falling, full curve, poor fit] | – |
